Reference: PubChem BioAssay AID1671190 (National Center for Advancing Translational Sciences (NCATS), 2021)
Among all 580,000 compounds or so, about 6,100 (1.1%) were called active. Inconclusive results, whose numbers are uncertain, are shown with a selection of clear calls. The call rests on the fitted dose curve; in most records, active means well fitted inhibition curve with a large enough effect; inconclusive means small, poorly fitted or top-dose-only effect, or another doubt; inactive means no such curve, though single readings can be large or run the other way. A potency beside an inconclusive call is a rough fit, not a confirmed value.

Sequences of proteins named here, by UniProt entry; tags and fusion partners are left off. A change or cut given only in a name is not applied to a line headed by its entry.
UniProt P18054: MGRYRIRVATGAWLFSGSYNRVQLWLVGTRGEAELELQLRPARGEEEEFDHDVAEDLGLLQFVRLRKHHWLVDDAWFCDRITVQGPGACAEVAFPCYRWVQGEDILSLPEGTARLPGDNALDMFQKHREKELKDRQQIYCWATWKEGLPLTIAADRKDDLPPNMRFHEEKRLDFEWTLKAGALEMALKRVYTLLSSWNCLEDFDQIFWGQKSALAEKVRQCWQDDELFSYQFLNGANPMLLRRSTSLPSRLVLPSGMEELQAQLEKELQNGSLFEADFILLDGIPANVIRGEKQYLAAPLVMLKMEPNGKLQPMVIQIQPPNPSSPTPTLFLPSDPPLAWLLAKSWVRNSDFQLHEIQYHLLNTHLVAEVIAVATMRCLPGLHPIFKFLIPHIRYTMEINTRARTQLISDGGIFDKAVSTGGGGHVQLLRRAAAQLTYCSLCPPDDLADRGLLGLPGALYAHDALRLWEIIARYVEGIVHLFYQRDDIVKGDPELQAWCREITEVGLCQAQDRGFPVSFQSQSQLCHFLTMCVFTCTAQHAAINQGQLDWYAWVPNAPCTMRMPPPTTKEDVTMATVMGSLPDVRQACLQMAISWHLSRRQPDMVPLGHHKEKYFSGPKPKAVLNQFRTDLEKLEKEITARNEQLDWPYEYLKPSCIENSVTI

Each compound was assayed against Polyunsaturated fatty acid lipoxygenase ALOX12 (Homo sapiens) (UniProt P18054) (assay: Primary qHTS assay for inhibitors of human arachidonate 12S-lipoxygenase (ALOX12): Round 2). Conditions: purified 12hLO, xylenol orange hydroperoxide absorbance; activity change, negative = inhibition: at 108 µM (top of the series) unless noted.
How it was run: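 Purified human 12hLO (150 nM final) in 25 mM Hepes, 0.01% Triton X-100, pH 7.0 was preincubated 15 min at room temperature with compound. Then 40 uM arachidonic acid was added, 30 min. Hydroperoxide was read by Fe-XO absorbance ratio 573/405 nm.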
On the % scale 0 is the no-effect control and ±100 the full control effect; potency means the concentration at half of the fitted maximal effect.

With `CCC(C)(C)NC(=O)c1cc2cc(Br)ccc2oc1=O` as the compound, how does the Potency read?
Its Potency is inconclusive: 50.1 µM [inhibitor, partial curve, poor fit].

For `COc1ccc(N2Cc3c(ncnc3N3CCC(Cc4ccccc4)CC3)N(C)CC2=O)cc1`, which Potency is on record?
Its Potency is inconclusive: 31.6 µM [inhibitor, full curve].

For `COc1ccc(C(=O)Oc2ccc3c(c2)O/C(=C\c2ccc(C(C)(C)C)cc2)C3=O)cc1OC`, which Potency is on record?
The Potency was “inactive”.

`N=c1n(CCN2CCCCC2)c2ccccc2n1CC(O)c1ccc(Cl)c(Cl)c1` (centres undefined) was tested. Which Potency did it give?
Its Potency is inconclusive: 6.31 µM [inhibitor, full curve].

How did the Potency turn out when `S=C1NCCN1CC1CCN(CC2CCCC2)CC1` was run?
Its Potency is inconclusive: 100 µM [inhibitor, single point].

`C[C@]1(CO)[C@H]2Cc3sc(NC(=O)c4c(F)cccc4F)nc3[C@@H](CC(=O)O)[C@]2(C)CC[C@H]1O` was tested. Which Potency did it give?
Its Potency is inconclusive: 35.5 µM [inhibitor, partial curve, poor fit].

Which Potency does the source give for `CCOC(=O)N/N=C(/C)c1ccc([N+](=O)[O-])o1` here?
Its Potency is “inactive”.

With `CN(Cc1ccc(F)cc1)C(=O)NC1CCCC(C(F)(F)F)C1` (centres undefined) as the compound, how does the Potency read?
The Potency was inconclusive: 141 µM [inhibitor, partial curve, poor fit].

For `COc1ccc(C(O)c2nc3ccccc3n2C)cc1OC` (centres undefined), which Potency is on record?
The Potency was “inactive”.

`Cc1cccc(NC(c2cccc(F)c2)c2ccc3ccc(C)nc3c2O)n1` (centres undefined) was tested. Which Potency did it give?
The Potency was active: 25.1 µM.

With `CC(=C/c1ccco1)/C=N/NC(=O)c1nnn(-c2nonc2N)c1CN(C)C` as the compound, how does the Potency read?
The Potency was “inactive”.

`CC1CC(C)(C)C(CNC(=O)CCl)C1NC(=O)CCl` (centres undefined) was tested. Which Potency did it give?
The Potency was inconclusive: 14.1 µM [inhibitor, partial curve, poor fit].

How did the Potency turn out when `O=C(NC1CC1)c1cccc(NC(=O)C2CCN(S(=O)(=O)c3ccccc3C(F)(F)F)CC2)c1` was run?
Its Potency is “inactive”.

With `CCOCCn1c(CN(Cc2ccccc2)Cc2ccccc2)nc2c1c(=O)[nH]c(=O)n2C` as the compound, how does the Potency read?
Its Potency is inconclusive: 50.1 µM [inhibitor, partial curve, poor fit].

`COc1cccc(CN2CCN(Cc3cc4ccccc4[nH]3)CC2CCO)c1` (centres undefined) was tested. Which Potency did it give?
Its Potency is “inactive”.

How did the Potency turn out when `Cc1ccc(CCNC(=O)c2cc3c(s2)-c2ccccc2OC3)cc1` was run?
Its Potency is inconclusive: 79.4 µM [inhibitor, single point].

Which Potency does the source give for `N=c1sccn1CC(=O)Nc1cc(S(=O)(=O)N2CCCC2)ccc1Cl` here?
Its Potency is inconclusive: 56.2 µM [inhibitor, partial curve, poor fit].

With `CCOC(=O)CSc1cc(C)c(C#N)c2nc3ccccc3n12` as the compound, how does the Potency read?
Its Potency is inconclusive: 44.7 µM [inhibitor, partial curve].

How did the Potency turn out when `CCOc1ccc(CC(=O)NNC(=S)NC2CCCCC2)cc1OCC` was run?
Its Potency is “inactive”.

Which Potency does the source give for `COC(=O)c1[nH]c2cc(OC)ccc2c1N` here?
The Potency was inconclusive: 70.8 µM [inhibitor, partial curve, poor fit].

Which Potency does the source give for `Cc1ccccc1CN1Cc2nc(NCc3cccc(F)c3)ccc2OCC1=O` here?
Its Potency is inconclusive: 2.82 µM [inhibitor, full curve].

How did the Potency turn out when `CC1CCC(NC(=O)c2ccc3c(c2)N(Cc2ccccc2F)C(=O)c2ccccc2S3)CC1` (centres undefined) was run?
Its Potency is inconclusive: 11.2 µM [inhibitor, full curve, poor fit].

For `O=C(c1ccccc1)c1ccc(N2CCOCC2)c(F)c1`, which Potency is on record?
Its Potency is “inactive”.

Which Potency does the source give for `NCCNCCNCCN` here?
Its Potency is “inactive”.

`COc1ccc(CNC(=O)CCc2ncc(-c3c(F)cccc3F)o2)cc1` was tested. Which Potency did it give?
The Potency was “inactive”.

Which Potency does the source give for `O=C(NC(=S)Nc1ccccc1O)c1ccc(Cl)cc1Cl` here?
The Potency was inconclusive: 44.7 µM [inhibitor, partial curve, poor fit].

How did the Potency turn out when `N#CC1=C(N)SC(N)=C(C#N)C1C1CC=CCC1` (centres undefined) was run?
Its Potency is inconclusive: 39.8 µM [inhibitor, partial curve, poor fit].

Which Potency does the source give for `C[C@H](CO)N1C[C@H](C)[C@@H](CN(C)Cc2ccncc2)Oc2ccc(NC(=O)CCCCCC(=O)Nc3ccccc3N)cc2C1=O` here?
The Potency was inconclusive: 11.2 µM [inhibitor, full curve, poor fit].

`CC(C)=C1C2CCC1C(C(=O)Nc1sc(C)c(-c3ccc(C(C)C)cc3)c1C(N)=O)C2C(=O)O` (centres undefined) was tested. Which Potency did it give?
Its Potency is inconclusive: 44.7 µM [inhibitor, partial curve, poor fit].

Which Potency does the source give for `Cc1ccc(NC(=O)CSc2nnc3n(CC(C)C)c(=O)c4cc(F)ccc4n23)c(C)c1` here?
Its Potency is inconclusive: 100 µM [inhibitor, single point].

How did the Potency turn out when `O=C(CSc1ncnc2ccccc12)Nc1cc(S(=O)(=O)N2CCCCC2)ccc1Cl` was run?
The Potency was “inactive”.

Which Potency does the source give for `CC(C)=C1C(=O)NN(c2ccc(F)c(Cl)c2)C1=O` here?
Its Potency is active: 10 µM.

For `COc1cc(OC)c(NC(=O)Nc2nnc(N(C)C3CCCCC3)s2)cc1Cl`, which Potency is on record?
Its Potency is inconclusive: 0.501 µM [inhibitor, partial curve, poor fit].

For `Cc1ccc(S(=O)(=O)N2CCN(C(C(=O)O)c3c[nH]c4cc(Cl)ccc34)CC2)cc1` (centres undefined), which Potency is on record?
The Potency was inconclusive: 35.5 µM [inhibitor, partial curve].

How did the Potency turn out when `Cc1cc(O)cc(C)c1NS(=O)(=O)c1ccc2ccccc2c1` was run?
The Potency was inconclusive: 100 µM [inhibitor, single point].

With `CC(C)c1ccccc1NC(=O)Cn1nc(C(=O)O)c2ccccc2c1=O` as the compound, how does the Potency read?
Its Potency is “inactive”.

How did the Potency turn out when `CSc1nc2ccccc2nc1N(C)S(=O)(=O)c1ccc(C)cc1` was run?
The Potency was “inactive”.

Which Potency does the source give for `O=C(NCCc1ccc(F)cc1)c1cc(C2CC2)nc2ccccc12` here?
The Potency was “inactive”.

How did the Potency turn out when `COc1ccc([C@H]2CC(=O)C=C(c3cc(C=O)ccc3OC)C2)cc1OC` was run?
Its Potency is inconclusive: 100 µM [inhibitor, single point].

For `O=C(NC1CCN(c2cc(-c3ccccc3)[nH]n2)C1)c1ccc(F)c(Cl)c1` (centres undefined), which Potency is on record?
Its Potency is “inactive”.

`CCSc1ccc([C@@H]2[C@@H]3C(=O)N(CC)C(=O)[C@@H]3[C@]3(C(=O)OC)CCCCN23)cc1OC` was tested. Which Potency did it give?
Its Potency is inconclusive: 44.7 µM [inhibitor, partial curve, poor fit].

`CSC1=NC(C(Cl)(Cl)Cl)N=C(c2ccccc2)N1` (centres undefined) was tested. Which Potency did it give?
The Potency was “inactive”.

For `CN(C)c1ccc(C(=O)N2CCN(S(C)(=O)=O)[C@H](C(=O)N[C@H](Cc3c[nH]c4ccccc34)C(N)=O)C2)cc1`, which Potency is on record?
Its Potency is inconclusive: 79.4 µM [inhibitor, partial curve, poor fit].

Which Potency does the source give for `CCCOc1ccc(Br)cc1CSC(=N)N` here?
The Potency was inconclusive: 70.8 µM [inhibitor, partial curve, poor fit].

Which Potency does the source give for `Cc1csc(=O)n1CCC(=O)OCC(=O)c1c(N)n(C)c(=O)n(C)c1=O` here?
The Potency was “inactive”.

With `COc1ccc(-c2[nH]c3c(c2-c2c(-n4cccc4)n(C)c(=O)[nH]c2=O)c(=O)[nH]c(=O)n3C)cc1OC` as the compound, how does the Potency read?
Its Potency is inconclusive: 44.7 µM [inhibitor, partial curve].

For `COc1ccc2c(C)c(CC(=O)Nc3ccc(C(C)=O)cc3)c(=O)oc2c1OC`, which Potency is on record?
Its Potency is “inactive”.

How did the Potency turn out when `COc1ccc(OC)c(Cc2cnc3nc(N)nc(N)c3c2C)c1` was run?
The Potency was inconclusive: 79.4 µM [inhibitor, partial curve, poor fit].

Which Potency does the source give for `O=C(c1ccco1)N1CCC(C(=O)N2CCN(C(=O)c3ccco3)CC2)CC1` here?
Its Potency is “inactive”.

For `CCn1cc(S(=O)(=O)N2CCC3(CC2)CC(N2CCOCC2)CCO3)cn1` (centres undefined), which Potency is on record?
The Potency was “inactive”.

`CCc1ccc(OCC(=O)Nc2ccc3nsnc3c2)cc1` was tested. Which Potency did it give?
The Potency was “inactive”.

Which Potency does the source give for `COc1ccc(S(=O)(=O)n2nc(-c3ccc(Cl)cc3)cc2N)cc1OC` here?
The Potency was “inactive”.

For `CC(=O)Nc1ccc(S(=O)(=O)Nc2nc3ccccc3nc2-n2ccc(=NC(=O)c3ccccc3)cc2)cc1`, which Potency is on record?
The Potency was inconclusive: 112 µM [inhibitor, partial curve, poor fit].

With `Cc1ccc(CNc2nc(-c3cccs3)nn2C(=O)CC(C)C)o1` as the compound, how does the Potency read?
The Potency was inconclusive: 31.6 µM [inhibitor, partial curve].

For `CC(C)(C)n1ncc2c(=O)n(Cc3cccc(Cn4cnc5c(cnn5C(C)(C)C)c4=O)c3F)cnc21`, which Potency is on record?
Its Potency is “inactive”.

For `COc1cccc(CN2CCN(C(=O)c3ccco3)CC2)c1`, which Potency is on record?
The Potency was inconclusive: 0.355 µM [inhibitor, full curve, poor fit].

With `CCCCCC(=O)N1CC[C@@H](CC(=O)NCc2ccccc2)[C@@H](CC)C1` as the compound, how does the Potency read?
The Potency was “inactive”.

Which Potency does the source give for `C=C(C)c1nc(N)nc(N)n1` here?
Its Potency is inconclusive: 28.2 µM [inhibitor, partial curve, poor fit].

With `CCOc1ccc(CCNC(=O)COC(=O)COc2ccc(Br)cc2)cc1OCC` as the compound, how does the Potency read?
Its Potency is inconclusive: 44.7 µM [inhibitor, partial curve, poor fit].

`O=C(NC(=S)Nc1ccc(F)c(Cl)c1)C1CC1` was tested. Which Potency did it give?
Its Potency is inconclusive: 44.7 µM [inhibitor, partial curve, poor fit].

How did the activity change, negative = inhibition turn out when `O=Cc1ccccc1-c1ccccc1F` was run?
The activity change, negative = inhibition was inactive: 0.339% [at 12.5 µM].

`Clc1ccc(-c2csc(NCC3CCCO3)n2)cc1` (centres undefined) was tested. Which Potency did it give?
The Potency was inconclusive: 56.2 µM [inhibitor, partial curve, poor fit].

`Cc1ccc(NC(=O)COC(=O)c2ccccc2C)cc1F` was tested. Which Potency did it give?
The Potency was inconclusive: 6.31 µM [inhibitor, full curve, poor fit].

Which Potency does the source give for `Cc1cc(C)c2nc(-c3cccnc3)cc(C(=O)O)c2c1` here?
Its Potency is “inactive”.

How did the Potency turn out when `CCOc1ccc(S(=O)(=O)N/N=C\c2ccc3c(c2)OCO3)cc1` was run?
The Potency was inconclusive: 70.8 µM [inhibitor, partial curve, poor fit].

How did the Potency turn out when `Cc1ccc(C(=O)N/C(=C/c2ccc(-c3cccc([N+](=O)[O-])c3)o2)C(=O)NC(C)(C)C)cc1` was run?
The Potency was “inactive”.

For `COc1ccc([C@H]2CC(=O)C[C@@H](CCn3cc(-c4ccncc4)nn3)O2)cc1`, which Potency is on record?
The Potency was inconclusive: 44.7 µM [inhibitor, partial curve, poor fit].

How did the Potency turn out when `Cc1ccccc1S(=O)(=O)N1CCC(n2c(CC(C)C)nc3cccnc32)CC1` was run?
Its Potency is “inactive”.

With `CC(C)Nc1nc(-c2ccc3c(c2)CCCN3S(C)(=O)=O)cs1` as the compound, how does the Potency read?
The Potency was inconclusive: 44.7 µM [inhibitor, partial curve, poor fit].
